Source: PubChem BioAssay AID504444 (National Center for Advancing Translational Sciences (NCATS), 2011)
In all, about 360,000 compounds went through this assay and about 7,500 (2.1%) were called active. Inconclusive results, whose numbers are uncertain, are shown with a selection of clear calls. The call rests on the fitted dose curve; in most records, active means well fitted inhibition curve with a large enough effect; inconclusive means small, poorly fitted or top-dose-only effect, or effect the other way; inactive means flat fitted curve, though single readings scatter. Where the call is inconclusive, the potency comes from a doubtful curve fit.

assay: Nrf2 qHTS screen for inhibitors; conditions: A549 ARE-Fluc reporter, luciferase luminescence, 18-24 h; series mostly up to 46 µM; further: nearly all actives have a fitted effect of over 60% in size
In short: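 Concentration-response testing used A549 ARE_Fluc cells at 5000 cells/well. Following an 18-24 h compound incubation, viability was read by fluorescence (Ex 405/Em 525) and luciferase output by luminescence.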
Potency means the concentration at half of the fitted maximal effect.

Compound | Potency
COc1ccc(NS(=O)(=O)c2cc(NC(=O)c3ccco3)ccc2N2CCCCC2)cc1 | inconclusive: 7.31 µM [falling, partial curve, poor fit]
COC1=CC(=O)C=C(OC)C1=O | inconclusive: 29.1 µM [falling, single point]
CCOCCCNC(=O)c1ccc(Br)cc1 | inconclusive: 32.6 µM [activator, partial curve, poor fit]
O=C(N1CCCCCC1)N1CCN(S(=O)(=O)c2cccc([N+](=O)[O-])c2)CC1 | inconclusive: 14.6 µM [falling, partial curve, poor fit]
CCOC(=O)C1CCN(c2ncnc3c2[nH]c2cccc(OC)c23)CC1 | inactive
Cc1ccccc1Sc1c(C#N)c(-c2ccccc2)nn1C | inconclusive: 23.1 µM [falling, partial curve, poor fit]
COc1ccc(NS(=O)(=O)c2ccc(S(=O)(=O)N3CCCC3)cc2)cc1 | inconclusive: 29.1 µM [falling, single point]
CC(=O)c1ccc2c(c1)OCCOCCOc1ccccc1OCCOCCO2 | inconclusive: 29.1 µM [activator, single point]
CCc1ccc(N(CC)C(=O)c2ccc3c(Cl)c4c(nc3c2)CCC4)cc1 | inconclusive: 14.6 µM [falling, partial curve, poor fit]
COc1ccccc1NC(=O)CN(c1ccccc1OC)S(=O)(=O)c1ccccc1 | inconclusive: 32.6 µM [falling, single point]
Nc1cccc2c1C(=O)N(CCOc1ccccc1F)C2=O | inconclusive: 0.411 µM [activator, full curve]
O=C(Nc1ccc(NC(=O)c2ccc3c(c2)OCO3)cc1)c1cccc(Cl)c1 | inactive
CCn1c(=O)cc(SCC(=O)N2CCN(C(=O)c3ccco3)CC2)c2ccccc21 | inconclusive: 11.6 µM [falling, single point]
O=C(Nc1ccc(NC(=O)c2ccco2)cc1)c1ccc2c(c1)OCO2 | inconclusive: 10.3 µM [falling, partial curve, poor fit]
O=C(O)CSCC(=O)N1CCCN(c2ccc(C(F)(F)F)cn2)CC1 | inactive
Cc1csc(NC(=O)c2cc3c(s2)-c2ccccc2OC3)n1 | inconclusive: 29.1 µM [falling, single point]
Cc1cc2cc(C(c3nnnn3Cc3ccco3)N3CCc4ccccc4C3)c(=O)[nH]c2cc1C (stereo unspecified) | inconclusive: 20.6 µM [falling, single point]
CCCOc1ccc(CNC(=S)N/N=C/c2ccc([N+](=O)[O-])cc2)cc1 | inconclusive: 13 µM [falling, partial curve]
CC1(C)CC(NCc2cccc([N+](=O)[O-])c2)CC(C)(C)N1 | inconclusive: 3.26 µM [activator, partial curve]
O=C(N[C@@H](Cc1ccccc1)C(=O)N1CCC2(CC1)NCCc1[nH]cnc12)c1cccc(Br)c1 | inconclusive: 9.2 µM [falling, partial curve, poor fit]
CC1CN(C(=O)c2cc3cc(F)ccc3[nH]2)CC(C)O1 (stereo unspecified) | inconclusive: 1.16 µM [activator, full curve, poor fit]
Cc1ccc(-c2nc3c4c(-c5ccccc5)c(-c5ccccc5)oc4ncn3n2)cc1 | inconclusive: 5.8 µM [falling, single point]

Compound | Potency
CCN1CCN(Cc2ccc(NC(=O)c3ccc(C)c(NC(=O)c4c[nH]c5cc(C(F)(F)F)ccc5c4=O)c3)cc2C(F)(F)F)CC1 | inconclusive: 29.1 µM [falling, single point]
Cc1ccc(NC(=O)CN2C(=O)S/C(=C/c3ccc(-c4cccc(C(=O)O)c4)o3)C2=O)cc1 | inactive
CCOc1ccc(NC(=O)c2c(C)oc3nc(C)nc(N4CCOCC4)c23)cc1 | inconclusive: 25.9 µM [activator, partial curve, poor fit]
Cc1ccc(-c2cc(C(=O)Nc3ccncc3)c3ccccc3n2)cc1 | inconclusive: 23.1 µM [falling, single point]
C/C(Cn1cnc([N+](=O)[O-])n1)=N\NC(=O)c1ccccc1 | inconclusive: 9.2 µM [activator, partial curve]
Cc1c(C(=O)c2ccc(Cl)c(Cl)c2)cnc2cc3c(cc12)OCO3 | inconclusive: 25.9 µM [falling, single point]
CCC1CCC2(C1)N=C(Nc1nc3ccccc3o1)NC1=C2C(=O)CCC1 (stereo unspecified) | inconclusive: 23.1 µM [falling, single point]
Cc1cccc2nc(CSCc3ccco3)cn12 | inconclusive: 1.3 µM [activator, full curve]
O=C(c1ccc(Cl)c(S(=O)(=O)N2CCCC2)c1)N1CCN(c2ccccc2F)CC1 | inconclusive: 29.1 µM [falling, single point]
Cc1ccccc1NC1=NC2(CCCC2)N=C(N)N1 | inactive
CCc1ccc(C(=O)NCc2ccc(Cl)cc2)cc1 | inconclusive: 9.2 µM [activator, partial curve, poor fit]
CN1CCN(CC(=O)Nc2nnc(-c3cccs3)s2)CC1 | inconclusive: 0.82 µM [activator, full curve, poor fit]
COc1ccc(CNc2ncnc3sccc23)cc1OC | active: 10.3 µM
O=c1c(NCc2cccs2)nccn1-c1ccccc1 | inconclusive: 3.26 µM [activator, single point]
COc1ccc2[nH]c(C)c(CCNC(=S)Nc3cc(C)cc(C)c3)c2c1 | inconclusive: 29.1 µM [falling, single point]
Nc1ccc(N2CCN(c3ccc(Cl)c(Cl)c3)CC2)cc1 | inconclusive: 14.6 µM [falling, single point]
Cc1cccc(C)c1OCc1cc(C(=O)NC2CCC2)no1 | inactive
COc1nc(C)ccc1-c1noc(-c2ccco2)n1 | inconclusive: 0.366 µM [activator, full curve]
C=CCn1c(C)cc(C(=O)COC(=O)c2ccc(N)c([N+](=O)[O-])c2)c1C | inconclusive: 3.66 µM [activator, single point]
Cc1ccc(C)n1NC(=O)c1ccc(Cl)cc1Cl | inconclusive: 0.206 µM [activator, full curve, poor fit]
CCCNC(=O)c1ccc(-c2nc3ccccc3s2)s1 | inconclusive: 0.291 µM [activator, full curve]
Brc1ccccc1OCCCCn1cnc2ccccc21 | active: 7.31 µM

Compound | Potency
O=C(Oc1ccccc1)N(c1ccccc1)c1ccccc1 | inactive
CCOC(=O)C1(CCc2ccccc2)CCN(C(=O)CCn2cncn2)CC1 | inconclusive: 13 µM [activator, partial curve, poor fit]
Cc1ccc(/C=C/C(=O)c2ccccc(=O)c2O)c(C)c1 | active: 20.6 µM
CN(c1ccc(C(=O)Nc2cccnc2)cc1)S(=O)(=O)c1ccccc1 | inactive
COc1cc(NC(=O)Nc2cccc([N+](=O)[O-])c2)cc(OC)c1 | inactive
CCC(C)C(=O)N1c2ccccc2C(=C2SC(C(=O)OC)=C(C(=O)OC)S2)C(=S)C1(C)C (stereo unspecified) | inconclusive: 35.5 µM [falling, single point]
Cc1ccc(NC(=O)c2ccc(Br)o2)cc1S(=O)(=O)N(C)C | inconclusive: 11.6 µM [activator, partial curve]
CC(=O)Nc1ccccc1C(=O)C(=O)Nc1ccc(C)c(F)c1 | inconclusive: 1.46 µM [falling, partial curve, poor fit]
COc1ccc(C)cc1NC(=O)c1cc2ccccc2o1 | inconclusive: 8.2 µM [activator, partial curve]
Cc1ccc(N(CC(=O)Nc2ccc(F)cc2F)S(=O)(=O)c2cccs2)cc1 | inconclusive: 3.26 µM [activator, full curve, poor fit]
CCOc1ccc(NC(=S)NC23CC4CC(CC(C4)C2)C3)cc1 | inactive
CC(=O)Nc1cc(F)c2c(c1F)Cc1cc(F)ccc1-2 | inconclusive: 16.4 µM [activator, partial curve]
Cn1c(SCc2ccc(Br)cc2)nc2c(c1=O)SCC2 | inconclusive: 29.1 µM [falling, single point]
CCCOc1ccc(/C(CC)=N/NC(=O)C2(C)CC2(Br)Br)cc1 (stereo unspecified) | inconclusive: 8.2 µM [falling, partial curve, poor fit]
CN(C(=O)COC(=O)C1=COCCO1)C1(C#N)CCCCC1 | inconclusive: 0.146 µM [falling, full curve, poor fit]
COc1cccc(Oc2ccc(N/C=C/C(=O)C(C)(C)C)cc2)c1 | inconclusive: 29.1 µM [falling, single point]
COc1ccc(-c2cn(Cc3ccc(C(N)=O)cc3)c(-c3ccncc3)n2)cc1 | inconclusive: 8.2 µM [activator, partial curve]
CCC(=O)Nc1nc2ccc(S(C)(=O)=O)cc2s1 | inactive
Cc1cc(=O)n2nc(N3CCCC(C(=O)N4CCN(c5ccccc5)CC4)C3)sc2n1 (stereo unspecified) | inconclusive: 20.6 µM [falling, single point]
Cc1c(NC=C(C#N)C#N)c(=O)n(-c2ccccc2)n1C | inconclusive: 6.51 µM [activator, partial curve, poor fit]
COc1ccc(NC(=O)Nc2cccc(C)n2)cc1 | inconclusive: 14.6 µM [activator, partial curve, poor fit]
CCOC(=O)N1CCN(C(=O)/C(=C/c2ccc(Cl)cc2)NC(=O)c2ccccc2)CC1 | inconclusive: 23.1 µM [falling, partial curve, poor fit]

Reformatted comma-delimited: part of the list above.
Compound,Potency
CCCOc1ccc(/C(CC)=N/NC(=O)C2(C)CC2(Br)Br)cc1 (stereo unspecified),"inconclusive: 8.2 µM [falling, partial curve, poor fit]"
CN(C(=O)COC(=O)C1=COCCO1)C1(C#N)CCCCC1,"inconclusive: 0.146 µM [falling, full curve, poor fit]"
COc1cccc(Oc2ccc(N/C=C/C(=O)C(C)(C)C)cc2)c1,"inconclusive: 29.1 µM [falling, single point]"
COc1ccc(-c2cn(Cc3ccc(C(N)=O)cc3)c(-c3ccncc3)n2)cc1,"inconclusive: 8.2 µM [activator, partial curve]"
CCC(=O)Nc1nc2ccc(S(C)(=O)=O)cc2s1,inactive
Cc1cc(=O)n2nc(N3CCCC(C(=O)N4CCN(c5ccccc5)CC4)C3)sc2n1 (stereo unspecified),"inconclusive: 20.6 µM [falling, single point]"
